These results are taken from paper PMC9324194.

Protein sequences, listed by entry. Tags and fused reporters are not part of them.
UniProt P27695: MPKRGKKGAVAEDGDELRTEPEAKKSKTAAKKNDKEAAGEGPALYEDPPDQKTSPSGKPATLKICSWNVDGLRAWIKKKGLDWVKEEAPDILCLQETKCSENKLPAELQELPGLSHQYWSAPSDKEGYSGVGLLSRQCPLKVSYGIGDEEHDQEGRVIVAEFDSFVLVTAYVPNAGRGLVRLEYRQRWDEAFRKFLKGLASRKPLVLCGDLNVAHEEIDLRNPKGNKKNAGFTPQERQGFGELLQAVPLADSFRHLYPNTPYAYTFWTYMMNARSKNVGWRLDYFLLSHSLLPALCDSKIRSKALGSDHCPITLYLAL
UniProt P06748: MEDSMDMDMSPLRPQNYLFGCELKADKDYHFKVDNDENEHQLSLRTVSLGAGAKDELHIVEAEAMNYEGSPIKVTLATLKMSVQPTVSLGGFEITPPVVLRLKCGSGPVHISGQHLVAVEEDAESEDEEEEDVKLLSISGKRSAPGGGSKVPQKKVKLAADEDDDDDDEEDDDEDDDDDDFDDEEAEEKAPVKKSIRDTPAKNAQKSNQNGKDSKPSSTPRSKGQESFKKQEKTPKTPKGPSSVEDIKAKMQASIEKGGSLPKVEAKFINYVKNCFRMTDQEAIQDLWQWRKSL

The target in this assay is Cy3-APE1 (full-length APE1 labelled with Cy3 at the N-terminus) (human) (UniProt P27695). The assay can be described thus: FRET or BRET; FRET between donor-labelled abasic DNA oligonucleotide (500 nM) and acceptor-labelled APE1 (500 nM) in ternary mixtures with 4 μM unlabelled NPM1 pentamer; 20 mM potassium phosphate pH 7.0, 50 mM NaCl, 2 mM DTT, 10 mM EDTA; 20 °C; both purified.

These are yes or no findings as the source states them, for the method shown. Some entries that bind do so weakly or less than the wild type.

“nucleophosmin (NPM1) (from UniProt P06748 1-294)”: the binding entry is listed as “binds”.
